Source: patent publication US6958318B2, “Recombinant bacterial cells for delivery of PNP to tumor cells” (The UAB Research Foundation, priority 1993, dated 2005)
For at least one compound, name, drawing or mass did not settle the structure.

Tested on: wild-type 16/C tumors
Test: Wild-type 16/C tumors in B6C3F1 mice
Assay type: in vivo
Details: IP for three days; MeP-dR 100, F-araAMP 500 mg/kg/day
Description: Transduced 16/C cells were implanted in mice by subcutaneous injection of approximately 10^6 cells harvested from the cultures of stably transduced 16/C cells described above. The mice were examined visibly for tumor growth and those with developing tumors were maintained. To prepare mice for use in the in vivo experiments, the tumors were removed from mice with significant tumor growth and cut into 30-60 mg pieces. One 30-60 mg piece of the tumor was subcutaneously implanted into the subaxillary region of each female B6C3F1 mouse. The tumors were allowed to develop and mice with tumors of 100 mm^3 were used.
Six mice (B6C3F1) per group with established wild type 16/C tumors were treated with an aqueous control solution, MeP-dR (100 mg/kg IP qd×3d) or 2-fluoro-arabinofuranosyladenine monophosphate (F-araAMP) (100 mg/kg IP, […]). The wild type tumors grew rapidly in the presence or absence of either of the prodrugs. […] (Table III, Wild-type 16/C treatment).

Row | SMILES | Days for tumor to double 3 times mean/SD
1 | Nc1nc(F)nc2c1ncn2[C@@H]1O[C@H](COP(=O)(O)O)[C@@H](O)[C@@H]1O [F-araAMP, 2-fluoro-arabinofuranosyladenine monophosphate, reference compound] | 8.9 ∀ 2.0 Days
2 | Cc1ncnc2c1ncn2[C@H]1C[C@H](O)[C@@H](CO)O1 [MeP-dR, 9-(β-D-2-deoxyerythropentofuranosyl)-6-methylpurine] | 8.6 ∀ 0.7 Days
